PubChem BioAssay AID2685 (National Center for Advancing Translational Sciences (NCATS), 2010)
The list shows a part of the results. The main result of the screen is listed elsewhere. These columns were measured beside it and carry no call. Most of these compounds were active or inconclusive in the main read-out, so they are no random draw. Potencies come from curve fits of mixed quality, noted in brackets.

Assay: qHTS Assay for Lipid Storage Modulators in Drosophila S3 Cells;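 on cell number change: cells counted by Cell Tracker Red CMTPX staining in the red channel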
Details: BODIPY lipid droplet fluorescence, 18-24 h; for cell number change: measured here: cell count max response, cells fed with added oleic acid
Method in brief: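 Drosophila S3 cells loaded with oleic acid (400 uM, as added) and compounds at several concentrations; lipid droplets imaged by 488-nm laser-scanning cytometry, 500–530 nm intensity and object ratio to cell channel. Percent activity normalized to 20 uM Triacsin C.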

[1] = measured here: lipid fluorescence (Fed channel) AC50, cells fed with added oleic acid
[2] = measured here: cell number channel AC50, cells fed with added oleic acid

SMILES | AC50 [1] | AC50 [2] | cell number change
COC(=O)C1CCN(C(=O)c2c(-c3ccccc3Cl)noc2C)CC1 | 4.61 nM [falling, full curve, poor fit] | – | –
Cc1ccc2oc(=O)c3cnn(CC(=O)N4CCCc5ccccc54)c3c2c1 | 103 nM [rising, full curve] | 92 nM [rising, full curve] | –
Cc1ccc(NC(=O)CS(=O)CC(=O)N(CC(=O)NC2CCCC2)c2cccc(C)c2C)cc1 (stereo not given) | 29100 nM [rising, single point] | – | -7.5%
COc1cc(C(=O)N2CCN(c3ccccc3O)CC2)ccc1OCC(=O)N1CCOCC1 | 2310 nM [rising, partial curve] | – | -4.92%
CCOc1ccc(C2=NNC(c3cccs3)=Nc3ccc(OCC)cc32)cc1 | 14600 nM [falling, partial curve] | 29100 nM [falling, single point] | -76.7%
CSc1nc(C)cc(Oc2ccc(OCC(N)=O)nn2)n1 | 13000 nM [falling, partial curve] | 1300 nM [falling, full curve, poor fit] | -28.6%
COc1ccc(C(=O)Nc2cccnc2)cc1 | – | – | 42.4%
C/C(=N\NC(=O)CSc1nc2ccccc2o1)c1ccc(O)cc1 | 3260 nM [rising, partial curve, poor fit] | 29100 nM [rising, single point] | 48.3%
O=C(CSc1ccccc1C(=O)O)c1ccc([N+](=O)[O-])cc1 | 580 nM [rising, full curve] | 517 nM [rising, full curve] | 29.3%
CCC(Oc1cc(Cl)ccc1Cl)C(=O)N1CCCN(C)CC1 (stereo not given) | – | – | 18.7%
Cc1cccc(C(=O)O/N=C/c2c(Cl)n(C)c3ccccc23)c1 | 23100 nM [rising, single point] | 20600 nM [rising, single point] | 47.3%
O=C(Nc1oc2ccccc2c(=O)c1-c1ccc(Br)cc1)c1ccco1 | – | 20600 nM [falling, single point] | -76.6%
NS(=O)(=O)c1ccc(Nc2c([N+](=O)[O-])cncc2[N+](=O)[O-])cc1 | 651 nM [falling, full curve] | – | 8.76%
CCCCC[n+]1ccn(C2=C([O-])c3ccccc3C(=O)/C2=N\S(=O)(=O)c2ccccc2)c1 | 4610 nM [falling, full curve] | – | -11.2%
COc1ccccc1NC(=O)Cn1cnc2c(cnn2-c2ccccc2)c1=O | 14600 nM [falling, partial curve] | 32600 nM [falling, single point] | -35%
O=C1CCCc2c1cc(C(=O)Nc1ccc(Br)cn1)c(=O)n2-c1ccccc1 | – | 18400 nM [rising, single point] | 78.9%
CC1(C)CN(c2ccc(CC#N)cc2)C1=O | 731 nM [falling, full curve] | – | -16.3%
COc1ccc(/C=C2\SC(=S)N(CCC(=O)Nc3cccc(O)c3)C2=O)cc1 | – | 32600 nM [rising, single point] | 31.2%
CC(Sc1nnnn1C1CCCC1)C(=O)Nc1cccc(S(=O)(=O)N2CCOCC2)c1 (stereo not given) | 103 nM [rising, full curve, poor fit] | – | -1.25%
CCN(CC)Cc1c(-c2ccccc2)[nH]c2ccc(C)cc2c1=O | – | 2310 nM [rising, partial curve] | –

Some of these compounds in order of length of the SMILES, smallest number first:
SMILES | AC50 [1] | AC50 [2] | cell number change
CC1(C)CN(c2ccc(CC#N)cc2)C1=O | 731 nM [falling, full curve] | – | -16.3%
C/C(=N\NC(=O)CSc1nc2ccccc2o1)c1ccc(O)cc1 | 3260 nM [rising, partial curve, poor fit] | 29100 nM [rising, single point] | 48.3%
O=C(CSc1ccccc1C(=O)O)c1ccc([N+](=O)[O-])cc1 | 580 nM [rising, full curve] | 517 nM [rising, full curve] | 29.3%

The list continues:

SMILES | AC50 [1] | AC50 [2] | cell number change
COC(=O)C(C)Sc1nc2c(c(=O)n(C)c(=O)n2C)n1Cc1cccc(C)c1 (stereo not given) | 58 nM [falling, full curve, poor fit] | – | -15%
CCN1CCC2(CCN(C(=O)c3cc(COc4cc(C)ccc4C)on3)C2)C1 (stereo not given) | 29100 nM [rising, partial curve] | – | 13.4%
CCCn1c(N)c(C(=O)CSc2nnnn2-c2ccc(O)cc2)c(=O)n(C)c1=O | 29100 nM [rising, single point] | 29100 nM [rising, single point] | 110%
O=S(=O)(NN=C1CCCCCC1)c1ccc(Cl)cc1 | – | 4.61 nM [rising, full curve, poor fit] | 10.9%
Nc1ccc(C(=O)c2cccs2)cc1[N+](=O)[O-] | 5.17 nM [falling, full curve, poor fit] | 4.61 nM [falling, full curve, poor fit] | -5.13%
O=C(Nc1ccc(Cl)cc1)N1CCOCC1 | 130 nM [falling, full curve, poor fit] | – | 16.1%
O=C(c1cccs1)N1CCN=C1SCc1cccnc1 | 14600 nM [rising, partial curve, poor fit] | – | -0.625%
CC1CN=C(NC2CCCCC2C)S1 (stereo not given) | 184 nM [falling, full curve, poor fit] | – | -3.96%
COc1ccc(-c2cn3cccnc3n2)cc1NC(=O)C1CCCC1 | 116 nM [rising, full curve, poor fit] | 231 nM [rising, full curve] | –
COc1ccc(C(CNC(=O)c2cc3ccccc3cc2OC)N2CCCC2)cc1 (stereo not given) | 731 nM [rising, full curve] | – | -2.48%
COC(=O)C1CC(O)CN1S(=O)(=O)c1ccc2ccccc2c1 (stereo not given) | 259 nM [rising, full curve] | – | 1.1%
C/C(=N\NC(=O)Cn1cc([N+](=O)[O-])cn1)c1ccco1 | 517 nM [rising, single point] | – | 22.8%
Cc1ccc(NC(=O)C2CCN(C(=O)c3ccccc3C)CC2)nc1 | – | – | -11.4%
C=CCc1ccccc1OCC(O)Cn1ccnc1C (stereo not given) | – | – | -2.72%
Cc1noc(C)c1COc1ccc(C(=O)NCCc2ccc(F)cc2)cc1 | 6510 nM [falling, single point] | 6510 nM [falling, single point] | -4.29%
O=C(Nc1ccc(Cl)cc1)c1cccc(S(=O)(=O)Nc2ccccn2)c1 | – | – | 10.3%
CCOc1cc(NC(=O)C2CCCCC2)c(OCC)cc1NC(=O)c1ccco1 | 411 nM [falling, full curve] | – | -9.18%
COc1ccc(OC)c(NC(=S)NCCCN2CCOCC2)c1 | – | – | 0.392%
CC1CCCC(NC(=O)COC(=O)c2cccc(NS(=O)(=O)/C=C/c3ccccc3)c2)C1C (stereo not given) | – | 16400 nM [rising, single point] | 36.7%
CN=C1SC(CC(=O)Nc2sc(C)c(C)c2C(=O)OC)C(=O)N1C (stereo not given) | 326 nM [rising, partial curve] | – | 8.46%

SMILES | AC50 [1] | AC50 [2] | cell number change
O=C(Nc1ccc(NC(=S)NC(=O)c2cccs2)cc1)c1ccccc1 | 4610 nM [rising, full curve] | – | 11.3%
CCOC(=O)c1c(C)[nH]c(C)c1C(=O)COC(=O)CNC(=O)c1ccc(OCC)cc1 | 731 nM [rising, single point] | – | –
Cc1ccc(Nc2nc(N)nc(CN3CCCCCC3)n2)cc1 | 29100 nM [rising, single point] | – | –
Cc1ccc(Oc2cc(NC(=O)CCCn3nc(C)c([N+](=O)[O-])c3C)cc([N+](=O)[O-])c2)cc1 | – | 2060 nM [rising, full curve, poor fit] | 34.5%
CCOc1ccccc1C1CC(c2cccc(NS(C)(=O)=O)c2)=NN1C(=O)c1ccccc1 (stereo not given) | 20600 nM [rising, single point] | – | –
Cn1c(CCNC(=O)c2ccco2)nc2cc(NS(=O)(=O)c3ccccc3)ccc21 | – | – | 16.2%
O=C(c1ccccc1)N1CCN(C(=O)C23CC4CC(CC(C4)C2)C3)CC1 | 5800 nM [falling, single point] | – | -3.87%
O=C(CCNS(=O)(=O)c1cccc(Cl)c1)OCC(=O)N1CCN(C(=O)c2ccco2)CC1 | 29100 nM [rising, partial curve, poor fit] | – | 3.08%
O=C(CC1OC(=O)c2ccccc21)NNC(=O)c1ccc(F)cc1 (stereo not given) | 146 nM [falling, partial curve, poor fit] | – | 4.4%
CCC(Sc1nc2cc(OC)c(OC)cc2c(=O)n1Cc1ccco1)C(=O)NCCOC (stereo not given) | 164 nM [rising, full curve, poor fit] | – | 27.5%
O=C1c2ccccc2NC(c2cccc(Cl)c2)N1N=C1CCCCCC1 (stereo not given) | 580 nM [falling, full curve, poor fit] | – | 3.31%
C=CCOC(=O)CN1C(=O)c2ccccc2C1=O | 116 nM [falling, single point] | – | -1.9%
O=C(Nc1ccc(Cl)cc1C(=O)N1CCOCC1)c1ccco1 | 6510 nM [falling, single point] | 2590 nM [falling, partial curve, poor fit] | -11.6%
OC(COCC(F)(F)C(F)(F)C(F)(F)C(F)F)Cn1c2ccc(Cl)cc2c2cc(Cl)ccc21 (stereo not given) | – | 20600 nM [falling, partial curve] | -67.9%
Clc1ccc(NC2(c3nnnn3C3CCCCC3)CCCCC2)cc1 | 8200 nM [rising, partial curve] | – | 12.2%
CCOCCCNC(=O)c1cn(CC)c2ccc(S(=O)(=O)N(C)C3CCCCC3)cc2c1=O | 3660 nM [falling, single point] | – | 19.1%
CC1=Nn2c(nnc2-c2ccco2)SC1 | 1840 nM [rising, full curve, poor fit] | – | 21.7%
CC(C)c1c(C(=O)N/N=C/c2ccc(OCc3ccccc3)cc2)nnn1-c1nonc1N | 29100 nM [rising, single point] | 29100 nM [rising, single point] | 53.2%
